For assay [1], the target named is MBD2-Venus (mouse Methyl-CpG-binding domain protein-2 fused to mVenus) (mouse) (UniProt Q9Z2E1). In words: FRET or BRET; FRET-FLIM in living MLO-Y4 cells triple-transfected with Src-Scarlet, Pyk2-Cer3 and MBD2-Venus; lifetimes of Pyk2-Cer3 and of MBD2-Venus measured.
Assay [2] shares this target. In words: FRET or BRET; FRET-FLIM in living MLO-Y4 cells co-transfected with a donor (Cer3 fusion) and one acceptor (Scarlet or Venus fusion); donor lifetime by frequency-domain FLIM, 37°C, 5% CO2; regions of interest: focal adhesions, cytoplasm, peri-nuclear region, nucleus; static culture, for Pyk2-Cer3/Src-Scarlet also after 1 hour of fluid flow on an orbital shaker.

Protein sequences, listed by entry. Tags and fused reporters are not part of them.
UniProt Q9Z2E1: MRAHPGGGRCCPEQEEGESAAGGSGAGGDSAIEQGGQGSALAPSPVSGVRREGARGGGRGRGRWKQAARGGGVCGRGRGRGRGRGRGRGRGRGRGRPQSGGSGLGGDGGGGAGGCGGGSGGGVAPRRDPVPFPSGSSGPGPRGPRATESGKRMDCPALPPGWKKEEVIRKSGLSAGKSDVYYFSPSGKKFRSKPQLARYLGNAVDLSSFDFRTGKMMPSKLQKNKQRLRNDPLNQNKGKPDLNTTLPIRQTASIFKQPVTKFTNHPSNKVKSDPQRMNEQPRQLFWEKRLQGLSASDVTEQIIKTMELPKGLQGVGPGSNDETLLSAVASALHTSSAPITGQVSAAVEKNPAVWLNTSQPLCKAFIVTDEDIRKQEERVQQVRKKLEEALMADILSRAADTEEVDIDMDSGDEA
UniProt Q9QVP9: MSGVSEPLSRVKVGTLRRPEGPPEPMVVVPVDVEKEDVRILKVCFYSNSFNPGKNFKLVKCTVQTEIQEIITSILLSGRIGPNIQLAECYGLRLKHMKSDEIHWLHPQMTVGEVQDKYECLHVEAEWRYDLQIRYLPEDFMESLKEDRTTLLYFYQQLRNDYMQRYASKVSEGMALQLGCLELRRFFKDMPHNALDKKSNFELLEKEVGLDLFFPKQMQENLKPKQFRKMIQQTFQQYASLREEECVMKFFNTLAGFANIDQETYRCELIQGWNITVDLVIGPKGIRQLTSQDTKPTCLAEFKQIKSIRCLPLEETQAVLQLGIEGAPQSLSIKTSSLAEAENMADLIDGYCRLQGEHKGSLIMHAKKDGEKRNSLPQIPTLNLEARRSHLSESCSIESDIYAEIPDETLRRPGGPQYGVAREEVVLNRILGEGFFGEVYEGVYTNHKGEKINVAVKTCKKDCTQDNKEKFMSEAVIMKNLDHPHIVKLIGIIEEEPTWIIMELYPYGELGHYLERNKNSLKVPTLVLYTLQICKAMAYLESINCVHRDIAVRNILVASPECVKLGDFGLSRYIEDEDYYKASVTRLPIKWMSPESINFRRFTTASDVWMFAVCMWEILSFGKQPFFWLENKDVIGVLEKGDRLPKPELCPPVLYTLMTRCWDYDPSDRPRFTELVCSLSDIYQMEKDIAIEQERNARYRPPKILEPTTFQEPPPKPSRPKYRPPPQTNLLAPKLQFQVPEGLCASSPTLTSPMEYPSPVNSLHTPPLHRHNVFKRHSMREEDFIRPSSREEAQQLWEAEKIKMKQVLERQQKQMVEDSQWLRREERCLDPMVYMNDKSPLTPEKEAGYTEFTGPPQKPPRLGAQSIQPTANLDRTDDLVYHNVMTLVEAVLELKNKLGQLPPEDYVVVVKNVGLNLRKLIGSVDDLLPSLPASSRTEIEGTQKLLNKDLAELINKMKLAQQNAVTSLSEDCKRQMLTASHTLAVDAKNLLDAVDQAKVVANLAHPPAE

No constants are given. Whether binding was seen depends on the method and setting. Binding seen in cells or lysates may run through a third protein. Some entries that bind do so weakly or less than the wild type.

Turning to “Pyk2-Cer3 (mouse Proline-rich kinase-2 fused to monomeric Cerulean3) (from UniProt Q9QVP9 1-1009)”, the binding result in assay [1] and in assay [2] was “binds” in each case.

(Values after article PMC8699642.)
